Laboratory results taken from patent US12090172B2, “Suicide gene therapeutic agent for brain tumors using pluripotent stem cell” (KEIO UNIVERSITY, priority 2017, dated 2024).
At least one structure is not confirmed: it was looked up by name or label, or the drawing left a doubt.

System: U87-ffLuc tumor in mouse brain slices
Experiment: Time-lapse imaging by brain slice culture (bystander effect and migration)
Type: cell-based
Conditions: control group 2: 250 μM temozolomide in the medium; 5 days

Compound: Cn1nnc2c(C(N)=O)ncn2c1=O [temozolomide]
- effect of reducing the tumor: it was not observed that temozolomide had the effect of reducing the tumor
- effect on tumor increase: had the effect of suppressing temporary tumor increase
